# The whole screen tested about 580,000 compounds, of which about 6,100 (1.1%) were called active. The shares of active, inactive and inconclusive entries below differ from those in the screen. Calls come from the whole dose curve; as a rule, active = well fitted inhibition curve with a large enough effect; inconclusive = small, poorly fitted or top-dose-only effect, or another doubt; inactive = no such curve, though single readings can be large or run the other way. Where the call is inconclusive, the potency comes from a doubtful curve fit.
# Sequences of proteins named here, by UniProt entry; tags and fusion partners are left off. A change or cut given only in a name is not applied to a line headed by its entry.
# UniProt P18054: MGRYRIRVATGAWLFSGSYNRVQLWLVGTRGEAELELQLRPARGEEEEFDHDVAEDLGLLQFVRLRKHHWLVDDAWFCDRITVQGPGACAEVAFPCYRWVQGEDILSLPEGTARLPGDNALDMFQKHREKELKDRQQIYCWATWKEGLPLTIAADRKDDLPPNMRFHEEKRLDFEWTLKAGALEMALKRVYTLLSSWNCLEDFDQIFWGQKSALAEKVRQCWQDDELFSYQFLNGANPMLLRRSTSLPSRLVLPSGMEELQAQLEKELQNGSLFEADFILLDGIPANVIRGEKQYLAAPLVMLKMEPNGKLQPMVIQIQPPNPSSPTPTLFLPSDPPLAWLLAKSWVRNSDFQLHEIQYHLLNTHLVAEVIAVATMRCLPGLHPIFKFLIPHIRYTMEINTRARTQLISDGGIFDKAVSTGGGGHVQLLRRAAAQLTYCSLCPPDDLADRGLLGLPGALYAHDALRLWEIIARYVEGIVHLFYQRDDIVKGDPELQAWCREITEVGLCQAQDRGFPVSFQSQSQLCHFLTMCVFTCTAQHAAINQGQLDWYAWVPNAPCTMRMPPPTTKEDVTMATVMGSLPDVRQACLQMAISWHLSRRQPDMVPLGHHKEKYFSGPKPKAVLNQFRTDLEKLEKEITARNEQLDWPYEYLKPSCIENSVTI
# Biological target: Polyunsaturated fatty acid lipoxygenase ALOX12 (Homo sapiens) (UniProt P18054)
# Experiment: Primary qHTS assay for inhibitors of human arachidonate 12S-lipoxygenase (ALOX12): Round 2
# Settings: purified 12hLO, xylenol orange hydroperoxide absorbance; series mostly up to 108 µM
# How it was run: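 Purified human 12hLO at 150 nM in 25 mM Hepes, 0.01% Triton X-100, pH 7.0, preincubated 15 min at room temperature with compound. Reaction started with 40 uM arachidonic acid, 30 min at room temperature. Hydroperoxide measured by Fe-xylenol orange, 573/405 nm absorbance ratio.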
# Potency is the fitted concentration of half-maximal effect.
row,SMILES,Potency
1,C=CCNC(=S)Nc1ccc(OC(F)F)c(Cl)c1,"inconclusive: 44.7 µM [inhibitor, partial curve, poor fit]"
2,COc1ccc2cc(S(=O)(=O)N3CCCC(C)C3)ccc2c1 (configuration not stated),inactive
3,CC1(C)CN(CCc2ccccc2)C(=O)[C@H]1CC(=O)Nc1ccc(Br)cc1,"inconclusive: 70.8 µM [inhibitor, partial curve, poor fit]"
4,CCN1CCN(C(=O)c2ccccc2Nc2ccc(SC(F)F)cc2)CC1,"inconclusive: 79.4 µM [inhibitor, partial curve, poor fit]"
5,Fc1cccc(-c2cnc(Nc3ccc(N4CCOCC4)cc3)c3c2CCO3)c1,"inconclusive: 28.2 µM [inhibitor, partial curve]"
6,CCC1CN(C(=O)N2CCC(C(=O)NCCc3ccccc3OC)CC2)c2ccccc2O1 (configuration not stated),inactive
7,CCc1ccc(OC(=O)C(c2ccccc2)c2ccccc2)cc1,inactive
8,O=C(Nc1cc(Cl)cc(Cl)c1)c1ccc(F)c(S(=O)(=O)NC2CCCCC2)c1,"inconclusive: 126 µM [inhibitor, partial curve, poor fit]"
9,Cn1ccnc1CN[C@@H]1CO[C@H](CNC(=O)c2ccc(F)cc2)[C@H]1O,inactive
10,CCOc1ccc(-c2nc(C#N)c(NCCN3CCOCC3)o2)cc1,"inconclusive: 35.5 µM [inhibitor, partial curve, poor fit]"
11,CC(C)c1ccc2oc(-c3ccc(NC(=O)c4cc5ccccc5o4)cc3)nc2c1,"inconclusive: 5.62 µM [inhibitor, full curve, poor fit]"
12,O=c1c2ccccc2nc(SCc2cn3ccsc3n2)n1-c1ccccc1,inactive
13,O=C(NCCS(=O)(=O)N1CCN(c2ccc(F)cc2)CC1)C1CC(=O)N(c2ccc(F)cc2)C1 (configuration not stated),"inconclusive: 22.4 µM [inhibitor, partial curve, poor fit]"
14,CSc1ccccc1NC(=O)c1cnn2c(C(F)(F)F)cc(-c3cccs3)nc12,"inconclusive: 44.7 µM [inhibitor, partial curve, poor fit]"
15,COc1cccc(-c2nc3cnccn3c2NCCC(=O)Nc2cccc(Cl)c2)c1,"inconclusive: 35.5 µM [inhibitor, full curve, poor fit]"
16,C[C@H]1CN([C@@H](C)CO)C(=O)CCCn2nncc2CO[C@@H]1CN(C)Cc1ccc(-c2ccccc2)cc1,"inconclusive: 100 µM [inhibitor, single point]"
17,COCCC1(NC(=O)c2ccccc2)CCN(Cc2ccc(F)cc2F)CC1,"inconclusive: 6.31 µM [inhibitor, full curve, poor fit]"
